Screening data, single-dose tests

Data taken from ChEMBL document CHEMBL3988442, “University of Dundee, Small-Polar-MMV Screening Library” (2021).

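Assay of Toxoplasma gondii numbers, read through their beta-galactosidase reporter with a colour substrate. Tested at 50 µM. The record gives no direction; the compounds picked for IC50 retests had high values, so higher reads as fewer parasites. Size under these conditions: about 18,000 compounds, about 170 of them at 50% or above in at least one test.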

Each number is a percent effect as filed.
How 0% and 100% were set is not recorded. Most values in the screen are low, and negative values occur.
Compounds were drawn at random from those tested, without regard to their results.

For O=C(CCc1nc2ccccc2[nH]1)N1CCOCC1 the result was -6.948%. With CCC(=O)N1CCN(C(=O)CC)C(C)C1 (stereo not shown) the screen gave -5.142%. CNC(=O)c1cc(C2CC2)nn1-c1ccccc1 read 38.45%. COc1cc(S(=O)(=O)N2CCN=C2C)ccc1F gave 8.165%. With CN(Cc1cccnc1)C(=O)c1cc(Cl)c[nH]1 the screen gave -1.992%.

OC1(c2ccccc2)CCCNC1 (stereo not shown) read 12.49%. Cc1ncc(S(C)(=O)=O)c(NCc2snnc2C)n1 read -5.208%. CC(N[C@@H]1CCCC[C@H]1O)c1nccn1C (stereo partly shown) gave -3.854%. CCS(=O)(=O)CC(C)NCc1ccco1 (stereo not shown) gave -1.795%. CS(=O)(=O)C1CSCCN1C(=O)c1cccc(Cl)c1 (stereo not shown) gave -13.49%.

For CCOc1ccc(CSc2nnc[nH]2)cc1 the result was 0.7033%. Result for O=S(=O)(CC1CCOCC1)NCCCO was -7.355%. For NC1CCOC2(CCCC2)C1 (stereo not shown) the result was 19.75%. CCCNCCNS(=O)(=O)CCc1cccs1 gave 4.199%. Result for NCCC(=O)N1CCN(c2ccccn2)CC1 was -5.858%.

Result for CN(CCNC(=O)C[C@@H]1C[C@@H]2C=C[C@H]1C2)S(C)(=O)=O was 7.07%. For CC1(C)COC(=O)C1N (stereo not shown) the result was -3.101%. CCOc1cccc(NC(=O)NCCN(C)C)n1 read -13.49%. CCOc1ncccc1CN(C)S(=O)(=O)C1CC1 read 1.94%. With CCCC1SCCN1C(=O)c1cnc2n[nH]c(C)c2c1 (stereo not shown) the screen gave 13.78%.

With O[C@@H]1CCN[C@@H]1c1ccc(Cl)cc1 the screen gave -5.18%. NCc1csc(N)n1 gave -11.77%. With Cc1nc2ccc(C(=O)N[C@@H]3COCC[C@H]3O)cc2s1 the screen gave 8.843%. Fc1cccnc1NCc1cc[nH]n1 gave 1.028%. For O=C(CCc1ccccn1)N[C@@H]1CCNC[C@H]1O the result was -4.009%.

With Cc1ccc(C2CCCN2S(=O)(=O)N(C)CC(N)=O)o1 (stereo not shown) the screen gave 8.164%. For CNCCn1c(=O)oc2ccccc21 the result was -44.36%. Result for NCCCS(=O)(=O)c1ccc(Cl)cc1 was 12.6%. With O=C(c1c[nH]nc1C1CCCCC1)N1CCOCC1 the screen gave 0.6582%. For CN(C)CCC1CCCCN1S(=O)(=O)c1cccnc1 (stereo not shown) the result was -12.75%.

For O=C(NCCS(=O)(=O)N1CCSCC1)c1ccccc1 the result was -19.87%.

Some entries from above, unchanged:

compound,percent effect
COc1cc(S(=O)(=O)N2CCN=C2C)ccc1F,8.165
CN(C)CCC1CCCCN1S(=O)(=O)c1cccnc1 (stereo not shown),-12.75
CCOc1ccc(CSc2nnc[nH]2)cc1,0.7033